Some of the results follow. These are further read-outs of the screen, such as a control signal, another cell line or another target. No call is given for them. Most of these compounds were active or inconclusive in the main read-out, so they are no random draw. Words in brackets tell the shape of the fitted curve; partial curves, single points and poor fits give uncertain potencies.

The nature of this experiment: Cell signaling CRE-BLA (Fsk stim). To be noted: CHO CRE-bla reporter (cAMP response element driving beta-lactamase), forskolin EC10, beta-lactamase ratio; measured here: 460 nm blue channel. The essentials: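 Beta-lactamase reporter under a cAMP responsive element in CHO cells; compounds tested in titration series against EC10 NKH 477, 3 h at 37 °C. Read-out: CCF4 FRET ratio 460nm/530nm (excitation 405nm) giving %Activity, fitted to AC50.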
With `CC1(C)CC(=O)C(C=NCCN2CCNC2=O)=C(O)C1`, the AC50 (as a rule, the midpoint of the concentration-response curve, whichever way the signal moves) is 0.00316 µM [falling, full curve, poor fit]. For `O=C(O)CNS(=O)(=O)c1ccc(Br)s1` the value was 0.316 µM [falling, partial curve]; for `CC1CCCCN1C(=O)COc1ccc(NC(=O)c2ccco2)cc1` (stereo not given), 0.251 µM [falling, full curve]; for `CCCCCSc1nc2c(c(=O)[nH]c(=O)n2C)n1CCc1ccccc1`, 2.51 µM [rising, full curve]. For `CCCC(c1nnnn1C(C)(C)CC)N(CCCO)Cc1cc2cc(C)cc(C)c2[nH]c1=O` (stereo not given) the value was 0.316 µM [falling, partial curve]; for `Oc1ccc(N=Cc2ccc(-c3cccs3)s2)cc1`, 0.316 µM [rising, partial curve]; for `Cc1ccc(NC(=O)COC(=O)C2=COCCO2)cc1`, 5.01 µM [falling, single point]. `Cc1cc(C)nc(N2CCN(c3ncnc4c3oc3ccccc34)CC2)n1`: the AC50 is 5.01 µM [falling, partial curve]. `CNC1=C(Cl)C(=O)c2ccncc2C1=O`: the AC50 was 10 µM [falling, single point]. For `CC1(c2ccc(Cl)cc2Cl)OCC(Cn2ccnc2)O1` (stereo not given) the value was 10 µM [rising, single point]; for `COc1nc(Nc2cccc(C(F)(F)F)c2)nc(OC)n1`, 10 µM [rising, partial curve]. For `CCOC(=O)c1c(C)n(C)c2ccc(OCC(O)CN3C(=O)c4ccccc4S3(=O)=O)cc12` (stereo not given) the value was 3.98 µM [rising, partial curve]. For `O=C1c2[nH]nc(-c3ccccc3O)c2C(c2ccccc2)N1Cc1ccco1` (stereo not given) the value was 20 µM [falling, single point]; for `CCSc1nnc(NC(=O)Cc2ccc(OC)c(S(=O)(=O)N3CCOCC3)c2)s1`, 25.1 µM [rising, single point]; for `COC(=O)c1cccc(Oc2nc3c(c(=O)n(C)c(=O)n3C)n2C(C)C)c1`, 2 µM [rising, full curve]. `CC(C)Cn1c(SCC#N)nc2ccccc2c1=O`: the concentration at half-maximal activity (AC50) was 0.251 µM [rising, full curve].

For the molecule `CCCOc1c(OC)cccc1C1CC(=O)Nc2cc3c(cc21)OCO3` (stereo not given), the AC50 is 12.6 µM [rising, partial curve]. Turning to `COc1cccc(N2CC(O)=C(c3nc4ccccc4c(=O)[nH]3)C2=N)c1`, the half-maximal activity concentration (AC50) is 10 µM [rising, partial curve].

As to `Cc1ccc(CNc2cc(-c3nn4c(C)nnc4s3)ccc2C)s1`, the AC50 is 0.794 µM [rising, full curve]. For `CC1CN(Cc2nc3c(c(=O)n(C)c(=O)n3C)n2CCN2CCOCC2)CC(C)O1` (stereo not given) the value was 7.94 µM [falling, partial curve]; for `Cn1cc(-c2nc3cnc(N4CCNCC4)nc3n(CCc3ccccc3)c2=O)c2ccccc21`, 2 µM [rising, full curve]; for `CCCCCOc1ccc(N2C(=O)CC(N(O)c3ccccc3)C2=O)cc1` (stereo not given), 5.01 µM [falling, partial curve]. For `Cc1csc2c(C#N)c(=O)c3c(n12)CCC3` the value was 6.31 µM [rising, single point]; for `Cc1noc(C)c1-c1nc(Nc2ccncc2)c2ccccc2n1`, 3.98 µM [rising, partial curve].

For the molecule `CC(=O)c1c(N(C)C)ccnc1C(F)(F)F`, the AC50 was 0.631 µM [rising, partial curve]. For `Cc1nn(-c2ccccc2C(=O)O)c(=O)c2ccccc12` the value was 3.16 µM [rising, single point]; for `Cc1ccc(CNC(=O)c2cc3c(=O)n(C)c4ccccc4c3n2C)o1`, 3.98 µM [rising, partial curve]; for `CC(C)(C)n1ncc2c(=O)n(CC(=O)NCc3ccco3)cnc21`, 15.8 µM [rising, single point]. On to `CCOC(=O)c1sc(NC(=O)C(CC)Sc2nnc3c4ccccc4n(CC)c3n2)nc1C` (stereo not given), for which the AC50 is 3.16 µM [rising, full curve]. For `O=C(O)CCC(=O)Nc1ccc(N2CCOCC2)cc1` the value was 1.26 µM [falling, partial curve]; for `COc1ccccc1C(=O)Nc1ccc(S(=O)(=O)N2CCCC2)cc1`, 10 µM [rising, single point]. For `COc1ccc(C(c2sc3nc(C)nn3c2O)N2CCN(CCO)CC2)cc1OC` (stereo not given) the value was 10 µM [falling, single point]; for `Cc1nc2n(n1)C(c1ccccc1)C1=C(CC(c3ccco3)CC1=O)N2` (stereo not given), 12.6 µM [rising, partial curve]. For `Cc1cc(Nc2ccc(F)cc2Cl)n2ncnc2n1` the value was 10 µM [rising, single point]. For the molecule `Cn1c(C(=O)N2CCN(Cc3ccc4c(c3)OCO4)CC2)cc2c(=O)n(C)c3ccccc3c21`, the AC50 was 5.01 µM [rising, partial curve]. For `CCCc1ccc2c(N)c(C#N)sc2n1` the value was 10 µM [rising, partial curve]; for `COc1cccc(NC=C2C(=O)OC(C)(C)OC2=O)c1`, 0.00316 µM [falling, full curve]; for `COc1ccc(S(=O)(=O)N2CCC(C(=O)N3CCc4ccccc4C3)CC2)cc1OC`, 0.501 µM [rising, full curve, poor fit].

As for `Clc1cccc(Cl)c1C(Nc1nncs1)Nc1nncs1`, the AC50 is 1.58 µM [falling, partial curve]. For `COc1ccc(-c2nn(C)c3sc(C(=O)N4CCOCC4)cc23)cc1OC` the value was 15.8 µM [rising, partial curve]. For `CCCCn1c(NC(=O)c2ccc(F)cc2)c(C#N)c2nc3ccccc3nc21` the value was 10 µM [rising, partial curve]; for `COC(=O)CNC(=O)CCCCC(=O)NCC(=O)OC`, 20 µM [falling, partial curve, poor fit]. For `CCCCc1ccc(NC(=O)N[C@H](C(=O)O)C(C)CC)cc1` (stereo not given in full) the value was 10 µM [falling, partial curve]; for `COc1ccc(S(=O)(=O)N2CCCC(C(=O)NC3CCCCC3)C2)cc1` (stereo not given), 5.01 µM [falling, single point]; for `CC1=C(C(=O)Nc2ccccc2)C(c2ccco2)C(C#N)=C(SCc2ccccc2)N1` (stereo not given), 10 µM [falling, single point].

The record behind these values is PubChem BioAssay AID662 (National Center for Advancing Translational Sciences (NCATS), 2007).
